Measurements reported in PubChem BioAssay AID720505 (Drosophila RNAi Screening Center, 2013)
The screen tested about 20,000 reagents; below is an unselected part of those with a known target gene and a result. Over the whole deposit, about 2,100 (10%) are marked active. 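Raw plate signals without normalisation; calls rest on control-based scores that were not deposited; replicate 2 separates called from uncalled poorly.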 A plus sign joins genes that one reagent is predicted to hit. Not stated in the record: the amount of reagent, the time to read-out.

- Aim: 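Knock-downs that reduce calcium influx once internal stores are emptied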 (primary screen)
- System: Drosophila S2R+ cells
- Reagent: long dsRNA against Drosophila genes
- Treatment: thapsigargin (2 µM) in calcium-free buffer to empty internal stores, then 2 mM calcium added back
- Read-out: 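Stores emptied by 2 µM thapsigargin without calcium, then 2 mM calcium re-added; fluo-4 fluorescence followed by FLIPR in 384-well plates, per-well averaged endpoint, raw; two screen passes, some wells retested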
- Reading the numbers: calcium signal and retest calcium signal: higher = more calcium entry after store depletion
- Rule for the call: 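About 1500 genes called as lowering calcium entry, by varying amounts, judged against per-plate control wells with STIM1 as positive and Rho1 as negative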
- Calls: active = called as lowering calcium entry; inactive = not called

With knock-down of Ctr1C [DRSC15089], the screen gave calcium signal, replicate 1 = 175; calcium signal, replicate 2 = 120; inactive. With knock-down of Cds [DRSC10938], the record shows calcium signal, replicate 1 = 74.8; calcium signal, replicate 2 = 97.6; active. After knock-down of lncRNA:CR31647 [DRSC21903], the record shows calcium signal, replicate 1 = 109; calcium signal, replicate 2 = 210; inactive. CG17572 [DRSC02629] gave calcium signal, replicate 1 = 130; calcium signal, replicate 2 = 101; inactive. After knock-down of Ucp4B + asRNA:CR43465 [DRSC02665], the record shows calcium signal, replicate 1 = 173; calcium signal, replicate 2 = 117; inactive. Knock-down of Ras64B [DRSC08689] gave: calcium signal, replicate 1 = 80.5; calcium signal, replicate 2 = 91.4; inactive.

CG5783 [DRSC02894] scored calcium signal, replicate 1 = 129; calcium signal, replicate 2 = 82; inactive. For Ror [DRSC03414], the values are calcium signal, replicate 1 = 110; calcium signal, replicate 2 = 146; inactive. Against ova [DRSC02879] the deposit lists calcium signal, replicate 1 = 73.6; calcium signal, replicate 2 = 88.2; inactive. With knock-down of CG6362 [DRSC07413], the record shows calcium signal, replicate 1 = 157; calcium signal, replicate 2 = 127; inactive. With knock-down of CG17078 [DRSC00484] the results were calcium signal, replicate 1 = 162; calcium signal, replicate 2 = 122; inactive. Against CG13155 [DRSC06280] the deposit lists calcium signal, replicate 1 = 128; calcium signal, replicate 2 = 192; inactive.

With knock-down of MED8 [DRSC06426] the results were calcium signal, replicate 1 = 120; calcium signal, replicate 2 = 127; inactive. Against Poxm [DRSC16793] the deposit lists calcium signal, replicate 1 = 143; calcium signal, replicate 2 = 115; retest calcium signal, replicate 1 = 6482; retest calcium signal, replicate 2 = 127; inactive. Poxm [DRSC22839] scored calcium signal, replicate 1 = 110; calcium signal, replicate 2 = 107; inactive. Arl6 [DRSC07031] scored calcium signal, replicate 1 = 155; calcium signal, replicate 2 = 191; inactive. Knock-down of CG12126 [DRSC06103] gave: calcium signal, replicate 1 = 145; calcium signal, replicate 2 = 193; inactive. With knock-down of Cul6 [DRSC09830] the results were calcium signal, replicate 1 = 61.9; calcium signal, replicate 2 = 94.6; active.

For CG11029 [DRSC02119] the deposit lists calcium signal, replicate 1 = 119; calcium signal, replicate 2 = 138; inactive.

Sorted by “calcium signal, replicate 1” (ascending): some entries from above
ova [DRSC02879]: calcium signal, replicate 1 = 73.6; calcium signal, replicate 2 = 88.2; Outcome = inactive
CG6362 [DRSC07413]: calcium signal, replicate 1 = 157; calcium signal, replicate 2 = 127; Outcome = inactive
